The text below walks through data of US20150044237A1 (CENTRE NATIONAL DE LA RECHERCHE SCIENTIFIQUE, published 2015).

Sequences of proteins named here, by UniProt entry; tags and fusion partners are left off. Residues count along the entry.
UniProt P25445, residues 26-173: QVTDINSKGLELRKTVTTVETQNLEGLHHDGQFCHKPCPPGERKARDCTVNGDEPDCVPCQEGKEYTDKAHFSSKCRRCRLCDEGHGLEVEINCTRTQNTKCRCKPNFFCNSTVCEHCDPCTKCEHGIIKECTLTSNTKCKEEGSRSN

For assay [1], the target named is Recombinant Fas-Fc (R&Dsystems) (UniProt P25445). Briefly: SPR (BIAcore 3000), Fas-Fc immobilised on CM5 chip. Background: SPR reads the build-up and loss of mass on a sensor chip optically.
Assay [2] shares this target. Nature of the assay: SPR (BIAcore 3000), Fas-Fc immobilised on the chip, analyte at 100 nM (highest concentration tested) [2) C].

No constants are given. Whether binding was seen depends on the method and setting. Some results given as binding are weak or reduced against the parent protein; the word gives no strength.

B1: IgFasL (ligand)
chain: IPDSQTKVFPQDKVILVGSDITFCCVSQEKVLSALIGHTNCPLIHLDGENVAIKIRNISVSASSGTNVVFTTEDNIFGTVISRALQKELAELRESTSQMHTASSLEKQIGHPSPPPEKKELRKVAHLTGKSNSRSMPLEWEDTYGIVLLSGVKYKKGGLVINETGLYFVYSKVYFRGQSCNNLPLSHKVYMRNSKYPQDLVMMEGKMMSYCTTGQMWARSSYLGAVFNLTSADHLYVNVSELSLVNFEESQTFFGLYKL
notes: also called pFasL; polymeric FasL
Consider B1, for which the binding result in assay [1] and in assay [2] was “binds” in each case.
